From article PMC3763551, “The tRNA recognition mechanism of the minimalist SPOUT methyltransferase, TrmL” (Nucleic Acids Research, 2013)
No constants are given. Whether binding was seen depends on the method and setting.

Target: EcTrmL-Y142A (E. coli) (UniProt P0AGJ7)
Assay: SEC; analytical gel filtration, Superdex 75 (10/30), 20 mM Tris-HCl pH 7.5, 100 mM NaCl, 5 mM MgCl2, 5 mM beta-Me, 300 ul injected, 0.5 ml/min, against standard proteins; both purified

B1: EcTrmL-Y142A (enzyme, UniProt P0AGJ7 1-157)
chain: MLNIVLYEPEIPPNTGNIIRLCANTGFRLHIIEPMGFAWDDKRLRRAGLDYHEFTAVTRHHDYRAFLEAENPQRLFALTTKGTPAHSAVSYQDGDYLMFGPETRGLPASILDALPAEQKIRIPMVPDSRSMNLSNAVSVVVAEAWRQLGYPGAVLRD
- binding: no binding
